The text below walks through data of publication doi:10.1101/345264.

The chains behind the UniProt entries cited, without tags or fusion partners.
UniProt P46938: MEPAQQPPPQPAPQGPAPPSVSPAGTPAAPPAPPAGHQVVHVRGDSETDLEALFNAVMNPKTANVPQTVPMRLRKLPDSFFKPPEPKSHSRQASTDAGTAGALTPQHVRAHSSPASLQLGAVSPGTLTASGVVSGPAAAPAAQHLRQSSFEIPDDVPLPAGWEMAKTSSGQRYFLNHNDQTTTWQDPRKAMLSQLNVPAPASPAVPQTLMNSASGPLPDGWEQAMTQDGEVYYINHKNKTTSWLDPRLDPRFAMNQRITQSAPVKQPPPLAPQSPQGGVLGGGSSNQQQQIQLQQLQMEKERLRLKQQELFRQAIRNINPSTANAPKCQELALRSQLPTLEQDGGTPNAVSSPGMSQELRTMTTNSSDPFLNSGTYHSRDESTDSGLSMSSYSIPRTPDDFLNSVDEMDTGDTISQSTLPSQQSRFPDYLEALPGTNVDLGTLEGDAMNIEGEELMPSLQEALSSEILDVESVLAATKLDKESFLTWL

These are yes or no findings as the source states them, for the method shown. Binding seen in cells or lysates may run through a third protein. Some entries that bind do so weakly or less than the wild type.

In this assay the target is Yap1 (Hippo pathway transcription co-activator) (mouse (endogenous in mouse brain)) (UniProt P46938). The experiment in a line: co-IP.

B1: Angiomotin (Amot) (protein, UniProt Q8VHG2 1-1126)
chain: MRSSDDQPSGGTTVLQRLLQEQLRYGNPSENRSLLAIHQQATGNSSPFSTGSGNQGPQNDVLSSQDHHQQQLVAHPARQEPQGQEIQSENGVMEKQLSPRMQNNEELPTYEEAKVQSQYFRGQQHASVGAAFYVTGVTNQKMRTEGRPSVQRLTPGKMHQDEGLRDLKQGHVRSLSERLMQMSLATSGVKAHPPVTSAPLSPPQPNDLYKNATSSSEFYKAQGPPPSQHSLKGMEHRGPPPEYPFKGVPSQSVVCKSQEPGHFYSEHRLNQPGRTEGQLMRYQHPPEYGAARATQDISSLSLSARNSQPHSPTSSLTAGASSLPLLQSPPSTRLPPGQHLVSNQGDHSAHLSRHQQHLLSSQSHQGDHYRHAQASLTSAQQQPGEAYSAMPRAQQSASYQPMPADPFAMVSRAQQMVEILSDENRNLRQELDGCYEKVARLQKVETEIQRVSEAYENLVKSSSKREALEKAMRNKLEGEIRRMHDFNRDLRDRLETANKQLAEKEYEGSEDTRKTISQLFAKHKENQREKEKLEAELATARSTNEDQRRHIEIRDQALSNAQAKVVKLEEELKKKQVYVDKVEKMQQALVQLQAACEKREQLEHRLRTRLERELESLRIQQRQGNSQPTNASEYNAAALMELLREKEERILALEADMTKWEQKYLEENVMRHFALDAAATVAAQRDTTVISHSPNTSYDTALEARIQKEEEEILMANKRCLDMEGRIKTLHAQIIEKDAMIKVLQQRSRKEPSKTEQLSSMRPAKSLMSISNAGSGLLAHSSTLTGAPIMEEKRDDKSWKGSLGVLLGGDYRVEPVPSTPSPVPPSTPLLSAHSKTGSRDCSTQTERGPESTKTAAVTPISAPMAGPVAAAAPAAAINATAATNTATAATNTTIMVAAAPVAVAAVAAPAAAAATPSPANAAALAAAAAPATSVSAATSVSAANSISPAAPVAPAAVVPPAAPVSPAAAVQIPAAASLTPATVSPTAATATAAVAAATTAAITAAAAAATTAIQVAPATSAPVPSPASIPAPATAQASAPTPTQASTPAPTEPPSPVPTPTPALVQTEGPANPGASSGPRRLSTPNLMCNPDKPDAPAFHSSTLERKTPIQILGQEPDAEMVEYLI
Consider B1, for which the binding result was “binds”.
